Results deposited as PubChem BioAssay AID686943 (Drosophila RNAi Screening Center, 2013).
The deposit covers about 23,000 reagents; shown is a random part of those with a known target gene and a result. 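Extra replicates exist only for a retested subset of genes; insulin dose and duration not given; both raised and lowered dpERK matter.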 The numbers tell different reagents against one gene apart. The record does not give: the amount of reagent, the time to read-out.

Aim: 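Fly genes whose loss alters ERK activation after insulin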 (primary screen)
Cells: Drosophila S2R+ haemocyte-like cells expressing YFP-tagged ERK (Rolled)
Reagent: long dsRNA against Drosophila genes
Challenge: insulin stimulation versus unstimulated cells; dose and duration not given
Detection: 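Per-plate z-scores of phospho-ERK immunostaining normalised to YFP-tagged ERK, measured with and without insulin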
Direction: replicate 1, z-score of dpERK with insulin and replicate 2, z-score of dpERK with insulin: higher = more active ERK per ERK-YFP after insulin; replicate 1, z-score of dpERK under basal conditions: higher = more basal active ERK per ERK-YFP; replicate 1, z-score of ERK-YFP with insulin: higher = more YFP-tagged ERK signal

gene,reagent,"replicate 1, z-score of dpERK with insulin","replicate 2, z-score of dpERK with insulin","replicate 1, z-score of dpERK under basal conditions","replicate 1, z-score of ERK-YFP with insulin"
"E(spl)mgamma-HLH (Enhancer of split mgamma, helix-loop-helix)",1,-0.02,0.22,-0.42,0.96
CG30344,1,-0.18,0.77,-0.43,0.36
SkpA (SKP1-related A),1,4.14,1.55,2.21,-0.74
CG7025,1,0.7,-0.04,0.32,-0.13
CG43134,1,0.54,0.9,0.25,0.09
CG2841,1,1.17,0.35,1.18,-0.23
CG2841,2,-0.48,-0.8,-0.73,1.32
CG2841,3,0.03,0.69,0,-1.27
CG30053,1,0.22,0.36,0,0.32
CG4101,1,0.75,1.4,0.43,-0.58
DptB (Diptericin B),1,0.59,0.11,0.99,-0.28
BTBD9 (BTB (POZ) domain containing 9),1,-0.03,0.51,-0.12,0.07
BTBD9 (BTB (POZ) domain containing 9),2,1.16,-0.92,-0.39,0.85
Lcp4 (Larval cuticle protein 4),1,-0.22,0.03,0.5,0.67
Ir68b (Ionotropic receptor 68b),1,0.15,-0.05,0.98,0.36
CG11771,1,-0.19,-0.05,0.21,-0.45
CG33110,1,-1.08,-1.49,-1.1,-0.13
CG33110,2,0.17,-0.04,-0.4,0.78
CG2291,1,-0.13,0.38,1.21,0.71
ATP8B (ATPase 8B),1,-1.07,-0.47,0.23,0.45
ATP8B (ATPase 8B),2,-0.5,0.29,0.06,-0.07
CG15255,1,-0.84,0.03,-0.61,-1.84
CG5126,1,1.1,0.03,-1.05,-1.73
Sptr (Sepiapterin reductase),1,-0.46,0.03,0.75,0.81
Rsph1 (Radial spoke head protein 1),1,0.21,-0.04,-1.12,0.06
Mocs1 (Molybdenum cofactor synthesis 1),1,-0.07,0.47,0.28,0.22
Hacl (2-hydroxyacyl-CoA lyase),1,0.09,-0.7,0.37,0.14
PpV (Protein phosphatase V),1,-1.17,1.17,0.67,-0.44
RhoGAP93B (Rho GTPase activating protein at 93B),1,0.33,0.75,-0.28,-0.02
Nep6 (Neprilysin 6),1,-1.09,-1.36,-1.51,-1.36
CG14506,1,-0.18,-1.49,0.95,0.2
ppk5 (pickpocket 5),1,0.95,2.14,0.56,0.41
Muc68D (Mucin 68D),1,0.52,0.01,0.31,0.06
vtd (verthandi),1,-0.8,0.27,-2.05,0.18
CG5892,1,-0.23,0.31,0.84,0.77
tgy (twiggy),1,0.21,-0.39,0.74,0.05
Acbp4 (Acyl-CoA binding protein 4),1,0.42,-0.45,-0.76,0.25
Nipsnap,1,0.37,0.78,0.26,0.4
CG43149,1,0.65,0.99,0.75,1.15
CG10035,1,0.49,0.03,0.03,-0.04
SLC22A (SLC22A family member),1,-0.11,-0.22,0.36,0.05
SLC22A (SLC22A family member),2,0.72,0.22,-0.64,0.44
sowi (solwind),1,-0.19,-0.18,2.65,0.48
grn (grain),1,-4.35,-2.63,-3.41,-0.37
grn (grain),2,1.69,0.1,0.26,0.08
CG15153,1,0.05,0.15,-0.09,0.32
CG34324,1,-0.97,-0.19,1.35,0.45
CG15120,1,0.11,-0.63,0.63,0.45
CG1354,1,0.79,0.52,,0.31
CG16762,1,0.43,0.02,0.32,0.28
CG32365,1,0.49,1.12,-0.13,1.08
CG32365,2,-6.13,-2.99,-2.08,-7.22
CG32365,3,-7.21,-4.14,-0.71,-5.34
Src64B (Src oncogene at 64B),1,0.23,-0.51,-0.98,0.28
CG4133,1,-0.16,-0.44,-2.32,-0.63
Ho (Heme oxygenase),1,0.14,0.09,-0.29,-0.11
CG32533,1,1.34,1.1,-2.1,-0.86
CG32533,2,-0.07,0.31,-0.01,-0.4

A portion from the list above, for reference:
gene,reagent,"replicate 1, z-score of dpERK with insulin","replicate 2, z-score of dpERK with insulin","replicate 1, z-score of dpERK under basal conditions","replicate 1, z-score of ERK-YFP with insulin"
CG32365,1,0.49,1.12,-0.13,1.08
CG32365,2,-6.13,-2.99,-2.08,-7.22
CG32365,3,-7.21,-4.14,-0.71,-5.34
Src64B (Src oncogene at 64B),1,0.23,-0.51,-0.98,0.28
